Some of the results follow.
Columns and labels:
Test in all cases: log2 fold change, soluble protein after heating vs DMSO (PISA); higher = thermal stabilisation; K562 cells, 10 uM, 30 min; active = over 0.2 and 3.5 SD of the protein, either way, in both replicates (recomputed)
[1] = target: ZNF787 (UniProt Q6DD87)
How it was run: (§1)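 Quantification of soluble protein used TMTpro 16plex LC-MS/MS, with channel sums equalised. Samples were the supernatant after 21,000xg for 90 min of pooled aliquots from K562 cells (2×10^6 cells/mL) treated with 10 μM compound for 30 min, heated for 3 min over 48°C-58°C, and extracted in PBS with 0.5% NP-40 at 4°C. Values, from duplicates, describe thermal stability against control samples on a log2 fold-change scale.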

Protein sequences, listed by entry. Tags and fused reporters are not part of them. Lines headed by an entry give the natural chain unless they say otherwise; changes in a name come on top.
UniProt Q6DD87: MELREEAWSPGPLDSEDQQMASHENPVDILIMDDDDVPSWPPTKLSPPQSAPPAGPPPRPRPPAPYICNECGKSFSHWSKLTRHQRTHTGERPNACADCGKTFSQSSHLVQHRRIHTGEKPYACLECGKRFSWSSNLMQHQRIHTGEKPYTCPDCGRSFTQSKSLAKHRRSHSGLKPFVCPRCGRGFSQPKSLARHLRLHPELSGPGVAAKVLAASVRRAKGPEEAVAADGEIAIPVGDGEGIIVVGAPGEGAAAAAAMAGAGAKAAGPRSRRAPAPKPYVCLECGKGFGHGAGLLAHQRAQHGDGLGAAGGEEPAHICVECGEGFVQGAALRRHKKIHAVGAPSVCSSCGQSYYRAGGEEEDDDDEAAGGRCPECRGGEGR
UniProt Q2TB10: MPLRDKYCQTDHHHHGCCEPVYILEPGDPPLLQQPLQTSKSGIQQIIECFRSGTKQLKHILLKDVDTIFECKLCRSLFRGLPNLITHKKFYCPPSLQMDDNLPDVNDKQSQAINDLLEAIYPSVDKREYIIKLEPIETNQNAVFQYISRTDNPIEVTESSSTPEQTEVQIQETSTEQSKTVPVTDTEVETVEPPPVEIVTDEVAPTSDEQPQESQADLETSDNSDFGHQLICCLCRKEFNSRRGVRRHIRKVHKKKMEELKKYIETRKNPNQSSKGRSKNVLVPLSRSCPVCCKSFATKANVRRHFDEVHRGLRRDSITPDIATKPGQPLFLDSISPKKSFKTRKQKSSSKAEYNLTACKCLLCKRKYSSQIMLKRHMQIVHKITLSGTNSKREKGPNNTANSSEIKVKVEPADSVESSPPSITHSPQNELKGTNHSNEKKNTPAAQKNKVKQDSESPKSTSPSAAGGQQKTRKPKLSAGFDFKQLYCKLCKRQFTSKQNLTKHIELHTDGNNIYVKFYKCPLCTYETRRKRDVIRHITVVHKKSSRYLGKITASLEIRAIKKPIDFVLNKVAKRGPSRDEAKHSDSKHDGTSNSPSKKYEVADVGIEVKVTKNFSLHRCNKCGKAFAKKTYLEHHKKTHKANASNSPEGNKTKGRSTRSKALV
UniProt Q96NB3: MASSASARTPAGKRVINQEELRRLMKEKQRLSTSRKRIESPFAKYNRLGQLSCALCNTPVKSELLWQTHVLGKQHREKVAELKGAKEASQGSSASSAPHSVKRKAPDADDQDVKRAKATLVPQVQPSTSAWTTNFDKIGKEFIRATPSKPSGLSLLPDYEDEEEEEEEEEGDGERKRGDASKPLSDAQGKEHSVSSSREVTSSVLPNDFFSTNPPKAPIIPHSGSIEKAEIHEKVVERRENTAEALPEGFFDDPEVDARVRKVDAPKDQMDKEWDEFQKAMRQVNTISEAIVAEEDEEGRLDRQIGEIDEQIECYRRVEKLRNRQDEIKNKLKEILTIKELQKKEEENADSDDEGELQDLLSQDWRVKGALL
UniProt Q6ZMS4: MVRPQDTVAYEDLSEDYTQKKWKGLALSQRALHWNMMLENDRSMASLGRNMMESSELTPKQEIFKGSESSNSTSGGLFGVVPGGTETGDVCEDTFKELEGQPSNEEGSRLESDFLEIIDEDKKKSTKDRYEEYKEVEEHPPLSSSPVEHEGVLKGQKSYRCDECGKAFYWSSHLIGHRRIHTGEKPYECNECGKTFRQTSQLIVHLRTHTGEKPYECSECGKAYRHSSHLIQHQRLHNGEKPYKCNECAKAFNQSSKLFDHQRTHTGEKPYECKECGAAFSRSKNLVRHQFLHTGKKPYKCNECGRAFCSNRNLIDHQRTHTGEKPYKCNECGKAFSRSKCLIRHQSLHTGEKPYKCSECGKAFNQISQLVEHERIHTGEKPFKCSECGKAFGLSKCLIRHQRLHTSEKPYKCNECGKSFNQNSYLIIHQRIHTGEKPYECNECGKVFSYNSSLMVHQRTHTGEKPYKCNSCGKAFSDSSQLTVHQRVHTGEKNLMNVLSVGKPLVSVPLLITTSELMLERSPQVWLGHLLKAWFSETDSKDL
UniProt O43257, whole entry, looked up: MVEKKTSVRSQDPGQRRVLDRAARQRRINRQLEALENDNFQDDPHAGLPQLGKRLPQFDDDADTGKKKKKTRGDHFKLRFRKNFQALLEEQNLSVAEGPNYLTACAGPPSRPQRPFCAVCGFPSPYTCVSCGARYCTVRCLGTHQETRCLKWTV
UniProt Q15649: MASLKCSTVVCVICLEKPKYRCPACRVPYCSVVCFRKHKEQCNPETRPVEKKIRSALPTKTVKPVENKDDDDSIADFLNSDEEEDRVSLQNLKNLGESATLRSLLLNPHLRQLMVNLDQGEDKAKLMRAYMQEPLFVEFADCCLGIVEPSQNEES
UniProt Q9NWK9: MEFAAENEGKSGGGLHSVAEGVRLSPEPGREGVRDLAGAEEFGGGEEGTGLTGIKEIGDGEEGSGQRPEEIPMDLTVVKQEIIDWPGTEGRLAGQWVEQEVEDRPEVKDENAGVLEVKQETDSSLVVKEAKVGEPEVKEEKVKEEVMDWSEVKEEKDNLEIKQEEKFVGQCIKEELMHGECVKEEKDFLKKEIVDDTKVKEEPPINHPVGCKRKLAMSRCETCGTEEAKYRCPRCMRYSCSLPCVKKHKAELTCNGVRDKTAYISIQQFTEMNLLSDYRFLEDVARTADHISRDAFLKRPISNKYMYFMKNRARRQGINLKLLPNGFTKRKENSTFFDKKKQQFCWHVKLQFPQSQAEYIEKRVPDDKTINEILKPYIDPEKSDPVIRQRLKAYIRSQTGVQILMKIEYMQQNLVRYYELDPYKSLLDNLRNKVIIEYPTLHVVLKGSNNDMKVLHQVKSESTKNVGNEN
UniProt Q9P1U0, whole entry, looked up: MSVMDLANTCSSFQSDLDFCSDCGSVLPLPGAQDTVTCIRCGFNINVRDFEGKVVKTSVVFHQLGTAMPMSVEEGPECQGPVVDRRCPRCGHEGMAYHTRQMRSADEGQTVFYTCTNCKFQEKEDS
UniProt O60232: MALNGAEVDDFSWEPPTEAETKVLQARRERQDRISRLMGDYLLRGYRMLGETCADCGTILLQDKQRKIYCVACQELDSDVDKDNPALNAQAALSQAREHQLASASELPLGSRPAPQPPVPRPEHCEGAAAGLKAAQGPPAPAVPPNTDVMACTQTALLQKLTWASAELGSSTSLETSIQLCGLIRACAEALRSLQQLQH
UniProt Q8NHG8: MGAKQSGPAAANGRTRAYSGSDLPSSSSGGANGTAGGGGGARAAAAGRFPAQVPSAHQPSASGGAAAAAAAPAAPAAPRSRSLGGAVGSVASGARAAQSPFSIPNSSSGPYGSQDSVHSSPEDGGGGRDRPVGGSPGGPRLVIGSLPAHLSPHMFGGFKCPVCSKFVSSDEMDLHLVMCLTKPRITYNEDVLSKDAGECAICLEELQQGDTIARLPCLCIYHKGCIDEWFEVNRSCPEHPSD
UniProt O75312: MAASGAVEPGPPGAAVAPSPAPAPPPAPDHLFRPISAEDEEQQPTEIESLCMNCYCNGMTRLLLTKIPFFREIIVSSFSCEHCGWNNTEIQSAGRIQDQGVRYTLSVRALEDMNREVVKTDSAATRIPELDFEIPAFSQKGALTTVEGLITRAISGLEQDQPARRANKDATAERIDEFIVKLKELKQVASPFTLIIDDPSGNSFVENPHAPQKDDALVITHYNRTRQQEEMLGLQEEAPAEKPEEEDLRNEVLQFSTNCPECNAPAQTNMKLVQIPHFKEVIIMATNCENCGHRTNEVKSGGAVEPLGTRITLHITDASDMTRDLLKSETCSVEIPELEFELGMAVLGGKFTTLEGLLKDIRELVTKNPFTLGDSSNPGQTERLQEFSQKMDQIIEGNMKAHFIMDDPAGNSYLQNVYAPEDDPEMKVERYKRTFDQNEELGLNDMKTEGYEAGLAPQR
UniProt O95218: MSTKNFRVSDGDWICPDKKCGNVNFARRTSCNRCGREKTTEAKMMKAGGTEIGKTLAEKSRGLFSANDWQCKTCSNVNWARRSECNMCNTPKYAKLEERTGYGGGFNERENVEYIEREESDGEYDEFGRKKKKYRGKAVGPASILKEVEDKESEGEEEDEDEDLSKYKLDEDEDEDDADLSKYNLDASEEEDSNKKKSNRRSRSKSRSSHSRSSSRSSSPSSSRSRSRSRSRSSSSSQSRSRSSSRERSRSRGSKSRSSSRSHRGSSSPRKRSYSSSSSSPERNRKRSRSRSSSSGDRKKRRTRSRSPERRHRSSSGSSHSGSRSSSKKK
UniProt Q16670: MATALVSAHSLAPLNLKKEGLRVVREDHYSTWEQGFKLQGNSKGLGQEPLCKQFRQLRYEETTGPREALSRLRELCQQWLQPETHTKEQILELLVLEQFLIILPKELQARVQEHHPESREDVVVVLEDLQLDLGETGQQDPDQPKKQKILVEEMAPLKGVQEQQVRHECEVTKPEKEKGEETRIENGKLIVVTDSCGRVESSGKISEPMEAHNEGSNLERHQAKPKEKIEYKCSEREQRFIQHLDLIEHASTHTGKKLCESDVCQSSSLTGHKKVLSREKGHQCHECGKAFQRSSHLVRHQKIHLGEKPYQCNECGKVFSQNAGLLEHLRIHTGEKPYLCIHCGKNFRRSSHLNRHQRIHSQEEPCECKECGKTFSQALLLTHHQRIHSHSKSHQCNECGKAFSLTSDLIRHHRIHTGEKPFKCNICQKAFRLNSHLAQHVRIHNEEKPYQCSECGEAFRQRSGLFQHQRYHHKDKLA
UniProt Q19AV6: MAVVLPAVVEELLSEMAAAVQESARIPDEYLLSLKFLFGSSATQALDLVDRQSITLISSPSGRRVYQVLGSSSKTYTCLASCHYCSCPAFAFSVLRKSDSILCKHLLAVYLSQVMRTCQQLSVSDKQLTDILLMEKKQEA
UniProt O43264: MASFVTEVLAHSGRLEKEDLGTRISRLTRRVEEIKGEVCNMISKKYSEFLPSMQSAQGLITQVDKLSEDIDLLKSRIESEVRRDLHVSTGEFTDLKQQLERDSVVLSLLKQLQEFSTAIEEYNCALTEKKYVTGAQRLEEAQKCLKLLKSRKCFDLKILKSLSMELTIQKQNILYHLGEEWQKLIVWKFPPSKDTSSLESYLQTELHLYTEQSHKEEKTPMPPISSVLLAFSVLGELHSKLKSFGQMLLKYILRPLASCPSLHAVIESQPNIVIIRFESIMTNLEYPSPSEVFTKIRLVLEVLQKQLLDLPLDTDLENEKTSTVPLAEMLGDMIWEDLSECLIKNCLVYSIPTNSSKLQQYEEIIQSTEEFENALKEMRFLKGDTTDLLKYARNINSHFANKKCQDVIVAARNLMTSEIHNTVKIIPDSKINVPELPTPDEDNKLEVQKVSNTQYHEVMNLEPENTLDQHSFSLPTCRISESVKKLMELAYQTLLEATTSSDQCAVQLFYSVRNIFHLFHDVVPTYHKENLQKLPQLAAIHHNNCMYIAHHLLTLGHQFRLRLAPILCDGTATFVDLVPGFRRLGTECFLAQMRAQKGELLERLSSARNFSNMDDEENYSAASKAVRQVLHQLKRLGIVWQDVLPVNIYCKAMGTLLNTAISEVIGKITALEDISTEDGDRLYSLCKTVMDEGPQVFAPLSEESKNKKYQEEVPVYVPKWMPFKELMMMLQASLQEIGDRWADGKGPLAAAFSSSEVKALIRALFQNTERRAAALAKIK
UniProt Q8ND25: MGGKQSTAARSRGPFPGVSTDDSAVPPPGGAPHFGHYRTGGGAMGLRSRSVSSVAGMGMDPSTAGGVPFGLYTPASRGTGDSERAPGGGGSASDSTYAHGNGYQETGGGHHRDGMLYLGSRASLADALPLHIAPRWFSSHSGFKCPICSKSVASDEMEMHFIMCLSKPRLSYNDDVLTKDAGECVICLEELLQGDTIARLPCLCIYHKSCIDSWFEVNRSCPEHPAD
UniProt Q9UHR6: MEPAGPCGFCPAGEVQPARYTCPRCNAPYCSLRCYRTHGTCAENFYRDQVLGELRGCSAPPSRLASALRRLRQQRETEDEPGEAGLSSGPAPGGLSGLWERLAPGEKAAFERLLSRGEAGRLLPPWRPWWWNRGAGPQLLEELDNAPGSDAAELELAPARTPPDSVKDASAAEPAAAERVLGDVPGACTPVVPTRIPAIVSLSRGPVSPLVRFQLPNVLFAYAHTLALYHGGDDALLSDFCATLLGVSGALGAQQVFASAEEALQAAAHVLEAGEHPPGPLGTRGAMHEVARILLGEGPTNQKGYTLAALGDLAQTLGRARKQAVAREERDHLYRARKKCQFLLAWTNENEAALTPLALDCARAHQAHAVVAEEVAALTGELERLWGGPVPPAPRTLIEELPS

[2] = target: ZNF800 (UniProt Q2TB10)
How it was run: as §1

[3] = target: ZNF830 (UniProt Q96NB3)
How it was run: as §1

[4] = target: ZNF852 (UniProt Q6ZMS4)
How it was run: as §1

[5] = target: ZNHIT1 (UniProt O43257)
How it was run: as §1

[6] = target: ZNHIT3 (UniProt Q15649)
How it was run: as §1

[7] = target: ZNHIT6 (UniProt Q9NWK9)
How it was run: as §1

[8] = target: ZNRD1 (UniProt Q9P1U0)
How it was run: as §1

[9] = target: ZNRD2 (UniProt G3V1B8)
How it was run: as §1

[10] = target: ZNRD2 (UniProt O60232)
How it was run: as §1

[11] = target: ZNRF2 (UniProt Q8NHG8)
How it was run: as §1

[12] = target: ZPR1 (UniProt O75312)
How it was run: as §1

[13] = target: ZRANB2 (UniProt O95218)
How it was run: as §1

[14] = target: ZSCAN26 (UniProt Q16670)
How it was run: as §1

[15] = target: ZSWIM7 (UniProt Q19AV6)
How it was run: as §1

[16] = target: ZW10 (UniProt O43264)
How it was run: as §1

[17] = target: ZNRF1 isoform 2 (UniProt Q8ND25)
How it was run: as §1

[18] = target: ZNHIT2 (UniProt Q9UHR6)
How it was run: as §1

Measured: log2 fold change

CON(C)C(=O)N1N=C(c2cc(F)ccc2F)S[C@@]1(CCCN)c1ccccc1 [filanesib]
inactive: [1] 0.255 | [2] 0.426 | [3] -0.026 | [4] -0.017 | [5] 0.156 | [6] 0.061 | [7] 0.027 | [8] 0.018 | [9] 0.038 | [10] 0.062 | [11] 0.085 | [12] -0.018 | [13] 0 | [14] 0.357 | [15] 0.07 | [16] 0.052

O=C(CCCCCCNC(=O)c1cnc(N(c2ccccc2)c2ccccc2Cl)nc1)NO [citarinostat]
inactive: [1] -0.064 | [2] 0.041 | [3] 0.007 | [4] -0.144 | [5] -0.27 | [6] -0.013 | [8] -0.005 | [10] -0.041 | [17] 0.14 | [11] -0.054 | [12] 0.038 | [13] -0.031 | [14] 0 | [15] 0.042 | [16] 0.033

CC(C)N(C[C@H]1O[C@@H](n2cnc3c(N)ncnc32)[C@H](O)[C@@H]1O)[C@H]1C[C@@H](CCc2nc3cc(C(C)(C)C)ccc3[nH]2)C1 [pinometostat]
inactive: [1] 0.241 | [2] 0.534 | [3] -0.052 | [4] 0.227 | [6] -0.066 | [7] 0.098 | [8] -0.187 | [10] -0.014 | [17] -0.047 | [12] -0.053 | [13] 0.012 | [16] 0.152

C[C@@H](Oc1cc(-c2cnn(C3CCNCC3)c2)cnc1N)c1c(Cl)ccc(F)c1Cl [crizotinib]
inactive: [1] -0.026 | [2] -0.023 | [3] 0.019 | [4] -0.013 | [6] 0.085 | [7] 0.02 | [8] 0.18 | [10] 0.149 | [17] -0.009 | [12] 0.082 | [13] 0.014 | [16] -0.137

Cc1cc(Nc2cc(CN3CCOCC3)c3nc(C)c(Cc4ccc(Cl)cc4F)n3n2)n[nH]1 [gandotinib]
inactive: [1] 0.114 | [2] 0.178 | [3] 0.082 | [5] 0.049 | [18] 0.235 | [6] 0.041 | [7] -0.081 | [8] 0.035 | [10] 0.019 | [17] 0.034 | [11] 0.013 | [12] 0.014 | [13] 0.064 | [16] -0.108

Nc1ccccc1NC(=O)c1ccc(CNC(=O)OCc2cccnc2)cc1 [entinostat]
inactive: [1] -0.072 | [2] 0.09 | [3] -0.029 | [4] -0.169 | [5] 0.098 | [6] -0.053 | [7] 0.054 | [8] -0.002 | [9] 0.027 | [10] 0.029 | [11] -0.031 | [12] 0.019 | [13] -0.024 | [14] -0.063 | [15] -0.072 | [16] 0.063

CN1CCN(c2nc(C3=C(c4c[nH]c5ccccc45)C(=O)NC3=O)c3ccccc3n2)CC1 [sotrastaurin]
inactive: [1] 0.094 | [2] 0.079 | [3] 0.004 | [4] -0.029 | [5] 0.028 | [6] 0.06 | [7] 0.029 | [8] 0.015 | [9] -0.187 | [10] 0.064 | [11] 0.092 | [12] -0.015 | [13] -0.027 | [14] 0.1 | [15] -0.238 | [16] -0.089

NC(=O)Nc1cc(-c2cccc(F)c2)sc1C(=O)N[C@H]1CCCNC1
inactive: [1] 0.043 | [2] -0.036 | [3] 0.035 | [4] 0.309 | [5] 0 | [6] 0.018 | [7] -0.035 | [8] -0.016 | [9] 0.141 | [10] -0.048 | [11] -0.033 | [12] -0.013 | [13] 0.076 | [14] -0.032 | [15] -0.201 | [16] -0.021

CS(=O)(=O)N1CCN(Cc2cc3nc(-c4cccc5[nH]ncc45)nc(N4CCOCC4)c3s2)CC1 [pictilisib]
inactive: [1] -0.063 | [2] -0.043 | [3] -0.012 | [5] 0.017 | [18] -0.027 | [6] -0.123 | [7] 0.099 | [8] -0.18 | [10] 0.051 | [17] 0.012 | [11] 0.031 | [12] 0.021 | [13] 0.01 | [16] 0.005

FC(F)(F)c1ccc(/C=C/c2nc(COc3ccc(CCCCn4ccnn4)cc3)co2)cc1 [mubritinib]
inactive: [1] -0.079 | [2] -0.131 | [3] 0.027 | [4] -0.334 | [5] -0.167 | [18] -0.233 | [6] 0.014 | [8] -0.053 | [9] 0.219 | [10] 0.033 | [17] 0.036 | [11] 0.056 | [12] 0.033 | [13] -0.02 | [16] 0.028

CCn1cc(-c2ccnc3[nH]c(-c4cccc(CN(C)C)c4)cc23)c(-c2ccc(NC(=O)N(C)C)cc2)n1
inactive: [1] 0 | [2] 0.109 | [3] 0 | [5] 0.051 | [18] 0.183 | [6] 0 | [7] -0.013 | [8] 0.074 | [10] 0.125 | [17] 0.025 | [11] 0.061 | [12] -0.049 | [13] 0.022 | [16] 0.022

CNCc1ccc(-c2[nH]c3cc(F)cc4c3c2CCNC4=O)cc1 [rucaparib]
inactive: [1] 0.264 | [2] 0.307 | [3] -0.033 | [4] -0.041 | [5] -0.072 | [6] -0.016 | [8] -0.009 | [10] 0.039 | [17] 0.115 | [11] -0.018 | [12] -0.01 | [13] -0.034 | [14] 0.269 | [15] 0.048 | [16] 0.128

Cc1cccc(-c2[nH]c(C(C)(C)C)nc2-c2ccc3nccnc3c2)n1
inactive: [1] -0.076 | [2] -0.168 | [3] 0.039 | [4] -0.105 | [6] -0.031 | [7] 0.056 | [8] 0.053 | [10] 0.02 | [17] 0.146 | [12] 0.023 | [13] -0.05 | [16] 0.006

Reprinted at random: 2 compounds from above, in no set order.
CNCc1ccc(-c2[nH]c3cc(F)cc4c3c2CCNC4=O)cc1 [rucaparib]
inactive: [1] 0.264 | [2] 0.307 | [3] -0.033 | [4] -0.041 | [5] -0.072 | [6] -0.016 | [8] -0.009 | [10] 0.039 | [17] 0.115 | [11] -0.018 | [12] -0.01 | [13] -0.034 | [14] 0.269 | [15] 0.048 | [16] 0.128

Cc1cccc(-c2[nH]c(C(C)(C)C)nc2-c2ccc3nccnc3c2)n1
inactive: [1] -0.076 | [2] -0.168 | [3] 0.039 | [4] -0.105 | [6] -0.031 | [7] 0.056 | [8] 0.053 | [10] 0.02 | [17] 0.146 | [12] 0.023 | [13] -0.05 | [16] 0.006

Next structures follow:

COc1ccc(Cn2ccc3ccc(C(=O)NO)cc32)cc1
inactive: [1] -0.031 | [2] -0.017 | [3] 0.086 | [4] 0.098 | [6] 0.031 | [7] -0.046 | [8] 0.346 | [10] -0.016 | [17] 0.239 | [12] -0.001 | [13] -0.022 | [16] -0.004

O=C(Nc1nc2ccccc2n1CCN1CCOCC1)c1cccc([N+](=O)[O-])c1 [IRAK-1-4 Inhibitor I]
inactive: [1] -0.024 | [2] -0.221 | [3] 0.067 | [4] -0.053 | [6] -0.009 | [7] 0 | [8] 0.132 | [10] 0.017 | [17] 0.012 | [12] 0.013 | [13] -0.008 | [16] -0.076

c1cn2cc(-c3ccc4cn[nH]c4c3)nc(Nc3ccc(N4CCOCC4)cc3)c2n1 [entospletinib]
inactive: [1] 0.066 | [2] 0.112 | [3] 0.003 | [4] -0.277 | [5] 0.041 | [6] -0.018 | [8] -0.011 | [10] 0.023 | [17] 0.041 | [11] 0.124 | [12] 0.005 | [14] -0.125 | [15] 0.188

O=C(CCCCCCC(=O)Nc1ccccc1)NO [vorinostat]
inactive: [1] 0.098 | [2] 0.06 | [3] -0.046 | [5] -0.033 | [18] 0.135 | [6] 0.026 | [7] 0.068 | [8] -0.129 | [10] -0.059 | [17] 0.002 | [11] 0.009 | [12] -0.007 | [13] -0.03 | [16] 0.085

CS(=O)(=O)c1ccc(-c2cnc(N)c(C(=O)Nc3ccccc3)n2)cc1
inactive: [1] -0.029 | [2] -0.02 | [3] -0.008 | [4] 0.436 | [5] 0.032 | [6] 0.008 | [7] -0.046 | [8] -0.002 | [9] -0.015 | [10] 0.003 | [11] -0.102 | [12] 0.005 | [13] -0.013 | [14] 0.019 | [15] -0.105 | [16] 0.027

NC1(c2ccc(-c3nc4ccn5c(=O)[nH]nc5c4cc3-c3ccccc3)cc2)CCC1
inactive: [1] 0.165 | [2] 0.211 | [3] 0.023 | [4] 0.343 | [5] 0.194 | [18] 0.145 | [6] 0.006 | [8] 0.066 | [9] 0.288 | [10] -0.002 | [17] 0.112 | [11] 0.071 | [12] -0.064 | [13] 0.046 | [16] -0.141

Source: the supplement of paper PMC10849652
